Experimental data: patent US20190040136A1
Results are given in words; binding and its absence hold for the method and conditions named. Some binding calls cover weakened binding; strength is not graded here.

The chains behind the UniProt entries cited, without tags or fusion partners. Residues count along the entry.
UniProt P18627, residues 23-450: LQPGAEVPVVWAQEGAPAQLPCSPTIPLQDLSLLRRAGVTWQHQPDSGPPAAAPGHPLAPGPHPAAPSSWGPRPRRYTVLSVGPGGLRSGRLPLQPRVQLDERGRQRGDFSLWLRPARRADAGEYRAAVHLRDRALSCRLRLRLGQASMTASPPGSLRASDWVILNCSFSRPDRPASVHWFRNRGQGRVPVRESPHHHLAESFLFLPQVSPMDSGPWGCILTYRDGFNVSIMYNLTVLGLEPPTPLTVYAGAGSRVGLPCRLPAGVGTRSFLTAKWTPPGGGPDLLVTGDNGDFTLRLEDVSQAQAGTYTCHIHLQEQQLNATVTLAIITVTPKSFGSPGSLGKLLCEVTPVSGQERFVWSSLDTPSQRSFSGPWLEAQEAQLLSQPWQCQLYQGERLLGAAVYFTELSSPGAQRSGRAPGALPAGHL

Legend:
[1] = target: human LAG-3 (Bio-Layer Interferometry; construct not stated) (human) (UniProt P18627); experiment: Bio-Layer Interferometry
[2] = target: human LAG-3 (Bio-Layer Interferometry; construct not stated) (human) (UniProt P18627); experiment: Bio-Layer Interferometry, antibody bound to the sensor, LAG-3 flown over
[3] = target: human LAG-3 (Bio-Layer Interferometry; construct not stated) (human) (UniProt P18627); experiment: Bio-Layer Interferometry sandwich, LAG-3 captured by a first antibody on the sensor
[4] = target: LAG-3 on activated CD4+ T cells (Homo sapiens (Human)) (UniProt P18627); experiment: flow cytometry, CD4+ T cells activated with anti-CD3/CD28 beads for 3 days
[5] = target: LAG-3 on activated CD4+ T cells (Homo sapiens (Human)) (UniProt P18627); experiment: flow cytometry, CD4+ T cells activated with anti-CD3/CD28 beads for 3 days, IgG1 at 100, 10 and 1 nM, geometric MFI
[6] = target: human LAG-3 coupled to phycoerythrin (human) (UniProt P18627); experiment: blocking assay, flow cytometry: phycoerythrin-coupled human LAG-3 pre-incubated with Fab, then binding to MHC class II on Daudi cells
[7] = target: human LAG-3 coupled to phycoerythrin (human) (UniProt P18627); experiment: blocking assay, flow cytometry: labelled LAG-3 pre-incubated with Fab, then binding to MHC class II on Daudi cells, mean fluorescence intensity

B1: anti-LAG-3 antibody clone F5 (format not stated) (antibody, V domains shown)
VH: EVQLVQSGAEVKKPGASVKVSCKVSGYTLTELSMHWVRQTPGKGLEWMGGFDPEDGETIYAQKFQGRVTMTEDTSTDTAYMELSSLRSEDTAVYYCATTWFGELYYWGQGTLVTVSS
VL: ETTLTQSPGTLSLSPGERATLSCRASQSVSSGYLAWYQQKPGQAPRLLIYDASSRATGIPDRFSGSGSGADFTLTISRLQPEDFAVYYCQQYGSSRPGLTFGGGTRVEIK
binding [1]: binds
binding [2]: binds
binding [3]: binds

B2: anti-LAG-3 antibody clone F5 in IgG1 format (antibody, V domains shown)
VH: EVQLVQSGAEVKKPGASVKVSCKVSGYTLTELSMHWVRQTPGKGLEWMGGFDPEDGETIYAQKFQGRVTMTEDTSTDTAYMELSSLRSEDTAVYYCATTWFGELYYWGQGTLVTVSS
VL: ETTLTQSPGTLSLSPGERATLSCRASQSVSSGYLAWYQQKPGQAPRLLIYDASSRATGIPDRFSGSGSGADFTLTISRLQPEDFAVYYCQQYGSSRPGLTFGGGTRVEIK
binding [4]: binds
binding [5]: binds

B3: anti-LAG-3 antibody clone F5 Fab (Fab, V domains shown)
VH: EVQLVQSGAEVKKPGASVKVSCKVSGYTLTELSMHWVRQTPGKGLEWMGGFDPEDGETIYAQKFQGRVTMTEDTSTDTAYMELSSLRSEDTAVYYCATTWFGELYYWGQGTLVTVSS
VL: ETTLTQSPGTLSLSPGERATLSCRASQSVSSGYLAWYQQKPGQAPRLLIYDASSRATGIPDRFSGSGSGADFTLTISRLQPEDFAVYYCQQYGSSRPGLTFGGGTRVEIK
binding [6]: binds
binding [7]: binds
